Laboratory results: PubChem BioAssay AID1259308 (NCATS, 2017)
In all, the deposit lists about 59,000 reagents; below is a random part of them. About 1,510 of them (2.6%) count as active. 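Calls use total luciferase alone and ignore viability, so some active siRNAs may act by altering cell number.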 Entries without a mark were called inactive.

Assay: 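Candidate targets for better recombinant protein yield in mammalian cells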 (primary screen)
System: human HEK293 embryonic kidney cells stably expressing firefly luciferase (HEK-CMV-Luc2-Hygro)
Reagents: single siRNA against human genes, 0.8 pmol siRNA per well
Time to read-out: 72 h
Detection: 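Luciferase light (ONE-Glo) measured on one replicate plate set and viability (CellTiter-Glo) on the other, scaled to a negative control siRNA, with robust z-scores and luciferase per cell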
Reading the numbers: total luciferase, z-score and total luciferase, % of control: higher = more reporter protein produced; luciferase per cell, z-score: higher = more reporter output per viable cell; viable cells, % of control: higher = more viable cells
Rule for the call: 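An siRNA counts as active if its total luciferase robust z-score exceeds 3; genes with two or more such siRNAs out of three were retested with fresh siRNAs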
Meaning of the calls: active = raised luciferase; inactive = no rise

| Target gene | PubChem SID | total luciferase, z-score | total luciferase, % of control | luciferase per cell, z-score | viable cells, % of control |
| --- | --- | --- | --- | --- | --- |
| HTR1D (5-hydroxytryptamine receptor 1D) | SID160775442 | -0.495 | 72 | -0.316 | 87.5 |
| HTR1D (5-hydroxytryptamine receptor 1D) | SID160775443 | -0.0871 | 80.2 | 0.322 | 82.3 |
| HTR1D (5-hydroxytryptamine receptor 1D) | SID160775444 | 0.00321 | 82 | -0.0151 | 91.9 |
| ESRRB (estrogen related receptor beta) | SID160730771 | -0.992 | 62.2 | -0.63 | 82 |
| ESRRB (estrogen related receptor beta) | SID160761975 | -0.22 | 77.5 | 0.118 | 84 |
| ESRRB (estrogen related receptor beta) | SID160761993 | -0.567 | 70.6 | 0.0109 | 78.7 |
| RIOK3 (RIO kinase 3) | SID160720786 | 0.404 | 89.9 | 0.329 | 92.2 |
| RIOK3 (RIO kinase 3) | SID160720787 | -0.825 | 65.5 | -1.17 | 99.5 |
| RIOK3 (RIO kinase 3) | SID160720788 | -1 | 61.9 | -1.28 | 97 |
| FLT1 (fms related receptor tyrosine kinase 1) | SID160766581 | 0.584 | 93.5 | 1.58 | 68.9 |
| FLT1 (fms related receptor tyrosine kinase 1) | SID160766591 | 1.44 | 111 | 0.827 | 99.4 |
| FLT1 (fms related receptor tyrosine kinase 1) | SID160766602 | 0.253 | 86.9 | -0.651 | 115 |
| IGSF23 (immunoglobulin superfamily member 23) | SID160758555 | -1.55 | 51.1 | -2.19 | 102 |
| IGSF23 (immunoglobulin superfamily member 23) | SID160758556 | -1.23 | 57.5 | -0.564 | 74.6 |
| IGSF23 (immunoglobulin superfamily member 23) | SID160758557 | 1.39 | 110 | 3.02 | 55.2 |
| CCN2 (cellular communication network factor 2) | SID160750223 | -0.382 | 74.3 | -1.08 | 110 |
| CCN2 (cellular communication network factor 2) | SID160750234 | -0.217 | 77.6 | -0.211 | 91.6 |
| CCN2 (cellular communication network factor 2) | SID160750245 | -0.0844 | 80.2 | -0.324 | 97.6 |
| RTF1 (RTF1 homolog, Paf1/RNA polymerase II complex component) | SID160735610 | 1.32 | 108 | 1.03 | 92.2 |
| RTF1 (RTF1 homolog, Paf1/RNA polymerase II complex component) | SID160735611 | 1.38 | 109 | 1.24 | 88.1 |
| RTF1 (RTF1 homolog, Paf1/RNA polymerase II complex component) | SID160735612 | 0.95 | 101 | 0.461 | 99.7 |
| SPCS1 (signal peptidase complex subunit 1) | SID160733020 | -1.77 | 46.6 | -1.12 | 69.9 |
| SPCS1 (signal peptidase complex subunit 1) | SID160733021 | -0.761 | 66.7 | -0.34 | 81.6 |
| SPCS1 (signal peptidase complex subunit 1) | SID160738902 | 0.654 | 94.9 | 0.978 | 82 |
| CTSK (cathepsin K) | SID160750682 | -0.48 | 72.3 | -0.247 | 86.3 |
| CTSK (cathepsin K) | SID160750691 | 0.735 | 96.5 | 0.521 | 94 |
| CTSK (cathepsin K) | SID160750700 | 1.29 | 107 | 0.262 | 112 |

The list goes on; the last 7 above are carried over.
| Target gene | PubChem SID | total luciferase, z-score | total luciferase, % of control | luciferase per cell, z-score | viable cells, % of control |
| --- | --- | --- | --- | --- | --- |
| RTF1 (RTF1 homolog, Paf1/RNA polymerase II complex component) | SID160735612 | 0.95 | 101 | 0.461 | 99.7 |
| SPCS1 (signal peptidase complex subunit 1) | SID160733020 | -1.77 | 46.6 | -1.12 | 69.9 |
| SPCS1 (signal peptidase complex subunit 1) | SID160733021 | -0.761 | 66.7 | -0.34 | 81.6 |
| SPCS1 (signal peptidase complex subunit 1) | SID160738902 | 0.654 | 94.9 | 0.978 | 82 |
| CTSK (cathepsin K) | SID160750682 | -0.48 | 72.3 | -0.247 | 86.3 |
| CTSK (cathepsin K) | SID160750691 | 0.735 | 96.5 | 0.521 | 94 |
| CTSK (cathepsin K) | SID160750700 | 1.29 | 107 | 0.262 | 112 |
| MUC22 (mucin 22) | SID160773168 | 0.312 | 88.1 | 1.47 | 66.8 |
| MUC22 (mucin 22) | SID160773169 | -0.652 | 68.9 | -0.153 | 80.2 |
| MUC22 (mucin 22) | SID160773170 | 0.39 | 89.6 | 0.96 | 77.8 |
| TBL1Y (transducin beta like 1 Y-linked) | SID160753779 | 0.776 | 97.3 | 0.596 | 93 |
| TBL1Y (transducin beta like 1 Y-linked) | SID160753780 | 1.66 | 115 | 1.56 | 85.1 |
| TBL1Y (transducin beta like 1 Y-linked) | SID160753781 | -2.13 | 39.5 | -1.89 | 72.5 |
| IFITM3 (interferon induced transmembrane protein 3) | SID160724261 | 1.16 | 105 | 0.519 | 102 |
| IFITM3 (interferon induced transmembrane protein 3) | SID160724262 | -0.599 | 70 | -0.475 | 88.6 |
| IFITM3 (interferon induced transmembrane protein 3) | SID160724263 | 1.01 | 102 | 0.0356 | 113 |
| RWDD4 (RWD domain containing 4) | SID160761037 | 0.0653 | 83.2 | -0.00232 | 93 |
| RWDD4 (RWD domain containing 4) | SID160761038 | -0.906 | 63.9 | -1.32 | 101 |
| RWDD4 (RWD domain containing 4) | SID160761039 | 0.221 | 86.3 | 0.816 | 77.8 |
| SYAP1 (synapse associated protein 1) | SID160754601 | 0.34 | 88.7 | 0.51 | 86.6 |
| SYAP1 (synapse associated protein 1) | SID160754602 | 0.241 | 86.7 | 0.867 | 77.1 |
| SYAP1 (synapse associated protein 1) | SID160754603 | -1.36 | 54.8 | -1.26 | 85.5 |
| TMPRSS3 (transmembrane serine protease 3) | SID160747859 | 1.12 | 104 | 0.407 | 105 |
| TMPRSS3 (transmembrane serine protease 3) | SID160747860 | 0.601 | 93.8 | 0.408 | 94.2 |
| TMPRSS3 (transmembrane serine protease 3) | SID160747861 | -0.909 | 63.8 | 3.59 | 27.7 |
| UBE4B (ubiquitination factor E4B) | SID160768962 | 0.272 | 87.3 | 2.37 | 52.2 |
| UBE4B (ubiquitination factor E4B) | SID160769051 | -0.237 | 77.2 | 0.628 | 73.1 |
| UBE4B (ubiquitination factor E4B) | SID160769144 | -0.618 | 69.6 | -0.543 | 89.7 |
| GYPA (glycophorin A (MNS blood group)) | SID160774754 | 0.886 | 99.5 | -0.0419 | 112 |
| GYPA (glycophorin A (MNS blood group)) | SID160774755 | 0.024 | 82.4 | -0.00675 | 92.2 |
| GYPA (glycophorin A (MNS blood group)) | SID160774756 | 0.982 | 101 | 0.664 | 95.1 |
| IFFO1 (intermediate filament family orphan 1) | SID160737208 | 2.48 | 131 | 1.62 | 95.8 |
| IFFO1 (intermediate filament family orphan 1) | SID160737209 | -0.721 | 67.5 | -0.706 | 90.9 |
| IFFO1 (intermediate filament family orphan 1) | SID160737210 | 1.92 | 120 | 1.2 | 97.9 |
| USP54 (ubiquitin specific peptidase 54) | SID160732596 | -0.489 | 72.2 | -0.839 | 101 |
| USP54 (ubiquitin specific peptidase 54) | SID160759729 | 0.0767 | 83.4 | -0.381 | 103 |
| USP54 (ubiquitin specific peptidase 54) | SID160759730 | -0.471 | 72.5 | -0.587 | 94.6 |
